These are yes or no findings as the source states them, for the method shown. Binding can be weak; no strength is given.
Experiments:
[1] = target: wild type Macaque GM-CSF (Macaque); assay: Western blot
[2] = target: wild type Macaque GM-CSF (Macaque); assay: semi-quantitative ELISA
[3] = target: wild type Macaque GM-CSF (Macaque); assay: Western blot; polypeptides separated by PAGE, nitrocellulose probed with 4K21 (2.68 ug/ml), goat anti-mouse IgG-HRP, chemiluminescence

binding [1]: binds
binding [2]: binds
binding [3]: binds
B1: murine anti-human GM-CSF monoclonal antibody 4K21-O11-E14 (antibody, V domains shown)
VH: EVQLVESGGGLVKSGGSLKLSCAASGFAFSAYDMSWVRQTPEKRLELVAYISSGGSSFYYPDTVKGRFTISRDNAKNTLYLQMSSLKSEDTAMYYCTRHLGFDYWGQGTTLTVSS
VL: DVVMTQTPLSLPVSLGDQASISCRSSQSLVNSNGNTYLHWFLQKPGQSPKLLIYKVSNRFSGVPDRFSGSGSGTDFTLKISRVEAEDLGVYFCSQSTHVPPTFGGGTKLEIK

From US20100297135A1
